## Primary screen of a compound library

The filed quantity is “Percent Effect” (%). The record does not define 0% and 100%; most values in the screen are far below 50% and negative numbers occur (in some assays of this library far below -100). The compounds are a random part of those screened.

Mtb glucose medium: 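Whole-cell growth test on Mycobacterium tuberculosis, read after 3 days in glucose-containing 7H9 medium; the read-out is not stated. Tested at 500 µM. The record gives no direction; compounds that gave an IC50 in retests scored well above the rest, so higher reads as more growth inhibition. Size under these conditions: about 18,000 compounds, about 1,400 of them at 50% or above in at least one test.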
Mtb cholesterol medium: 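Phenotypic screen: M. tuberculosis growth, cholesterol and DPPC medium, 4 days; the read-out is not stated. Tested at 500 µM. Higher reads as more growth inhibition (inferred: compounds with an IC50 in retests scored well above the rest). Of about 18,000 compounds tested this way, about 900 (5%) reached 50% or more in at least one test.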

CC(C)(N)CNS(=O)(=O)c1ccc(C#N)c(Cl)c1 read Mtb glucose medium: 15.66%; Mtb cholesterol medium: 31.86%.
NC1CCN(CC(=O)N2CCOCC2)CC1 read Mtb glucose medium: -1.793%; Mtb cholesterol medium: -3.561%.
Cc1cc(C2CCCN2)no1 (configuration not stated) read Mtb glucose medium: 4.501%; Mtb cholesterol medium: -11.28%.
NCCCC(=O)N1CCc2ccccc21 read Mtb glucose medium: 38.75%; Mtb cholesterol medium: 11.15%.
CCCC1C(=O)NCCN1c1ncc(F)cn1 (configuration not stated) read Mtb glucose medium: 11.22%; Mtb cholesterol medium: -4.754%.
CN(C)CC1CCN(C(=O)c2ccc(O)c(Cl)c2)CC1 read Mtb glucose medium: -14.15%; Mtb cholesterol medium: -10.04%.
CN(C)CCNC(=O)c1cc(Br)c[nH]1 read Mtb glucose medium: 11.37%; Mtb cholesterol medium: 4.243%.
Cc1cc(NC(=O)CN2CCC(C)CC2)n(C)n1 read Mtb glucose medium: 8.087%; Mtb cholesterol medium: 0.3977%.
CN(CCCC(=O)N1CCCCC1)CC1CCCO1 (configuration not stated) read Mtb glucose medium: 4.29%; Mtb cholesterol medium: -5.544%.
Cc1ccccc1OCC(=O)NCCCN(C)C read Mtb glucose medium: 14.75%; Mtb cholesterol medium: 16.62%.
CN1CCN(c2ccccc2NC(=O)C2CC2)CC1 read Mtb glucose medium: 16.53%; Mtb cholesterol medium: 20.32%.
CC(N)c1ccc(-n2cncn2)cc1 (configuration not stated) read Mtb glucose medium: 5.748%; Mtb cholesterol medium: -5.811%.
Cc1nnnn1CC(=O)N1C[C@H](C2CC2)[C@@H](N)C1 read Mtb glucose medium: -0.112%; Mtb cholesterol medium: -13.36%.
Cc1sc(S(N)(=O)=O)cc1N read Mtb glucose medium: 10.63%; Mtb cholesterol medium: 11.04%.
Cc1c[nH]c(C(=O)N(C)CCc2noc(C(C)C)n2)n1 read Mtb glucose medium: 11.74%; Mtb cholesterol medium: 3.422%.
N#CCOC(=O)CC(NC(N)=O)c1ccccc1 (configuration not stated) read Mtb glucose medium: 6.262%; Mtb cholesterol medium: -8.635%.
NCc1cccnc1O read Mtb glucose medium: -16.08%; Mtb cholesterol medium: -19.38%.
COc1ccc(CCC(=O)NC2(C#N)CCC2)cc1 read Mtb glucose medium: 41.71%; Mtb cholesterol medium: 15.41%.
CCN1CCN(CC2CCNCC2)CC1 read Mtb glucose medium: 4.722%; Mtb cholesterol medium: -4.38%.
NS(=O)(=O)N1CCN(Cc2cc(Br)cs2)CC1 read Mtb glucose medium: 44.46%; Mtb cholesterol medium: 25.94%.
Cc1cccnc1NC(=O)NC1CCS(=O)(=O)C1 (configuration not stated) read Mtb glucose medium: 5.874%; Mtb cholesterol medium: -1.247%.
CCC(N)C(=O)Nc1ccc2c(c1)CCC2 (configuration not stated) read Mtb glucose medium: 71.83%; Mtb cholesterol medium: 60.26%.
OC1(CN2CCCC2)CCCN(Cc2ccncc2)C1 (configuration not stated) read Mtb glucose medium: 11.8%; Mtb cholesterol medium: -14.38%.
O=C(CCN1CCCC(CO)C1)N1CCCCC1 (configuration not stated) read Mtb glucose medium: -5.874%; Mtb cholesterol medium: -4.732%.
CN(Cc1ccco1)C(=O)CCNC(=O)c1cccs1 read Mtb glucose medium: -4.535%; Mtb cholesterol medium: -12.43%.

The first 2 entries again:

| structure | Mtb glucose medium | Mtb cholesterol medium |
|---|---|---|
| `CC(C)(N)CNS(=O)(=O)c1ccc(C#N)c(Cl)c1` | 15.66% | 31.86% |
| `NC1CCN(CC(=O)N2CCOCC2)CC1` | -1.793% | -3.561% |

Source: ChEMBL document CHEMBL3988442, “University of Dundee, Small-Polar-MMV Screening Library” (2021).